Results taken from PMC4877585.
Results are given in words; binding and its absence hold for the method and conditions named. In cells and extracts the contact can be indirect. Some results given as binding are weak or reduced against the parent protein; the word gives no strength.

Target: T1, phosphorylated p47^phox (mouse (endogenous in MLVECs)) (UniProt Q09014)
T1 sequence (chain, phosphorylated (detected with anti-phosphoserine antibody); positions not stated): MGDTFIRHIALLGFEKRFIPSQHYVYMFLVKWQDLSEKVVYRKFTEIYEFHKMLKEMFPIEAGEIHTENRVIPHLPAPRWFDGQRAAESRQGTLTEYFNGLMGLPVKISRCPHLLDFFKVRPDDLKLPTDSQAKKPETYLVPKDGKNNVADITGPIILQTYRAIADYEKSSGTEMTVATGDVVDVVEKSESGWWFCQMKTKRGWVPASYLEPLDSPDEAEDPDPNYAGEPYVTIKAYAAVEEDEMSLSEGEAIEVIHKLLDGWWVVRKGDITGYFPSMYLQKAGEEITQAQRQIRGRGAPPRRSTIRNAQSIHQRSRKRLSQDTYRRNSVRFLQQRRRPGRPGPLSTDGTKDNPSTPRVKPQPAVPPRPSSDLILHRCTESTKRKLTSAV
Assay: co-IP; 600 ug total protein of MLVEC lysate (10 mM Tris pH 7.4, 150 mM NaCl, 5 mM EDTA, 1% Triton X-100) immunoprecipitated with anti-p47^phox antibody, blotted for gp91^phox and phosphoserine; cells treated with 0, 200 or 1500 ng/ml rmCIRP for 4 h or 200 ng/ml rmCIRP for up to 8 h

B1: gp91^phox (protein, UniProt Q61093 1-570)
chain: MGNWAVNEGLSIFVILVWLGLNVFLFINYYKVYDDGPKYNYTRKLLGSALALARAPAACLNFNCMLILLPVCRNLLSFLRGSSACCSTRIRRQLDRNLTFHKMVAWMIALHTAIHTIAHLFNVEWCVNARVGISDRYSIALSDIGDNENEEYLNFAREKIKNPEGGLYVAVTRLAGITGIVITLCLILIITSSTKTIRRSYFEVFWYTHHLFVIFFIGLAIHGAERIVRGQTAESLEEHNLDICADKIEEWGKIKECPVPKFAGNPPMTWKWIVGPMFLYLCERLVRFWRSQQKVVITKVVTHPFKTIELQMKKKGFKMEVGQYIFVKCPKVSKLEWHPFTLTSAPEEDFFSIHIRIVGDWTEGLFNACGCDKQEFQDAWKLPKIAVDGPFGTASEDVFSYEVVMLVGAGIGVTPFASILKSVWYKYCDNATSLKLKKIYFYWLCRDTHAFEWFADLLQLLETQMQERNNANFLSYNIYLTGWDESQANHFAVHHDEEKDVITGLKQKTLYGRPNWDNEFKTIASEHPNTTIGVFLCGPEALAETLSKQSISNSESGPRGVHFIFNKENF
B1 was tested, and the binding was “binds”.
